# Measurements: patent US6455270B1, “Method for inhibiting eukaryotic protein kinases” (TerraGen Discovery Inc., priority 1997, dated 2002)
# Some results were stated once for a whole list of compounds, not compound by compound.
# Tested on: Streptomyces 85E
# Test: Inhibition of sporulation in Streptomyces 85E (filter paper disc on freshly seeded plate)
# Assay type: cell-based, Streptomyces WEC478-85E
# Settings: disc assay, 10 ug
# Excerpt: adding the material to be tested for kinase inhibitory activity to a growing culture of a prokaryotic organism such as a streptomycete;
# allowing the culture to grow for a period of time in the presence of the material; and
# observing the culture for altered development relative to development of the prokaryotic organism grown in the absence of the material. Observation of altered development is indicative that the material has activity as an inhibitor of post-translational protein phosphorylation. In particular, the material to be tested can be added to a growing culture of the prokaryotic organism by placing a carrier disk bearing the material on a freshly seeded plate. Inhibition of the development of aerial mycelia and spore formation is an indicator that the material has activity as an inhibitor of post-translational protein phosphorylation.
# We have used a wild strain of Streptomyces isolated from soil and designated Streptomyces WEC478-85E (hereinafter strain 85E) to test lichen extracts. […]
# In the test assay, the lichen-extract to be tested was applied to a filter paper disk and then placed on a plate which has been freshly seeded with the strain 85E test organism. The test organism is then allowed to grow in the presence of the filter paper disk for a period of 24 to 36 hours, after which the organism is evaluated for altered development in the zone around the disk. […]
row,Compound,Persistence of the inhibition of sporulation
1,CC(=O)c1c(O)c(C)c(O)c2c1OC1=CC(=O)C(C(C)=O)C(=O)C12C (centres unmarked) [usnic acid],2 to 3 days
2,COC(=O)/C(=C1/OC(=O)C(c2ccccc2)=C1O)c1ccccc1 [vulpinic acid],2 to 3 days
